In doi:10.1101/2024.10.01.616059 (bioRxiv, 2024):
Where a chain is given by its changes, count along the chain named. Results are given in words; binding and its absence hold for the method and conditions named. For some of these results: In cells and extracts the contact can be indirect. Some binding calls cover weakened binding; strength is not graded here.

How the values were obtained:
[1] = target: T1, endogenous PRPS1-mNG11-ALFA (knock-in) (mouse (endogenous in NIH3T3)) (UniProt Q9D7G0); assay: co-IP; ALFA-tag pulldown: lysate of NIH3T3 knock-in cells with endogenous PRPS1-ALFA on anti-ALFA nanobody agarose (ALFA Selector ST), 1 h, 4 °C; washes with 0.5 M NaCl, 0.5% Triton X-100
T1 sequence: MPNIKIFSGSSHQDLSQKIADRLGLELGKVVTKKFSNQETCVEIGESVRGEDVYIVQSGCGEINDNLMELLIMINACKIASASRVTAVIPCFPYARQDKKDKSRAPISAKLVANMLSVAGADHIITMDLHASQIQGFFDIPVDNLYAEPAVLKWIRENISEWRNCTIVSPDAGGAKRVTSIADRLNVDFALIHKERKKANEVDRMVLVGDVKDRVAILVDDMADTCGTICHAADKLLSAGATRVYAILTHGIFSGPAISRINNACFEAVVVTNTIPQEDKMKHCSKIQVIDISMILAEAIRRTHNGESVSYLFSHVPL

[2] = target: T2, phosphoribosyl pyrophosphate synthetase 1 (PRPS1), mouse, endogenous (mouse (endogenous in NIH3T3 and C57BL/6 tissue)) (UniProt Q9D7G0); assay: SEC; native lysate of kidney of 12-week-old male C57BL/6 mice on Superose 6 Increase 3.2/300; fractions immunoblotted
T2 sequence: T1 sequence

[3] = target: T2, phosphoribosyl pyrophosphate synthetase 1 (PRPS1), mouse, endogenous (mouse (endogenous in NIH3T3 and C57BL/6 tissue)); assay: SEC; native whole-cell lysate of NIH3T3 AP1/AP2 KO cells on Yarra SEC-2000 (1 kDa to 300 kDa); fractions immunoblotted
[4] = target: T2, phosphoribosyl pyrophosphate synthetase 1 (PRPS1), mouse, endogenous (mouse (endogenous in NIH3T3 and C57BL/6 tissue)); assay: SEC; native whole cell lysate of parental NIH3T3 on Superose 6 Increase 3.2/300; fractions immunoblotted; internal standards of known native mass
[5] = target: T2, phosphoribosyl pyrophosphate synthetase 1 (PRPS1), mouse, endogenous (mouse (endogenous in NIH3T3 and C57BL/6 tissue)); assay: SEC; native lysate of NIH3T3 P2/AP1 KO cells (Supplementary Fig.7c); fractions immunoblotted
[6] = target: T2, phosphoribosyl pyrophosphate synthetase 1 (PRPS1), mouse, endogenous (mouse (endogenous in NIH3T3 and C57BL/6 tissue)); assay: co-IP; PRPS1 pulldown in NIH3T3 P2/AP2 KO cells (Supplementary Fig.7b); how PRPS1 was captured is not told
[7] = target: T3, phosphoribosyl pyrophosphate synthetase 2 (PRPS2), mouse, endogenous (mouse (endogenous in NIH3T3 and C57BL/6 tissue)) (UniProt Q9CS42); assay: SEC; native lysate of NIH3T3 P1/AP2 KO cells (Supplementary Fig.7d); fractions immunoblotted
T3 sequence: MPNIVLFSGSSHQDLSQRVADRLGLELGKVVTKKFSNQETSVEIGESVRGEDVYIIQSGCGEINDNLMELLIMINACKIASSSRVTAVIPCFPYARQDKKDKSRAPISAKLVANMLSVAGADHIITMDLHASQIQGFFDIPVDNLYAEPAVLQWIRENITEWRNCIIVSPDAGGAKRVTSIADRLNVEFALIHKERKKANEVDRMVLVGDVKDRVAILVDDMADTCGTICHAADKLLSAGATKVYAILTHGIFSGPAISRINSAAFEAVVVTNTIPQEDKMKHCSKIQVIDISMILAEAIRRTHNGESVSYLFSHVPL

[8] = target: T2, phosphoribosyl pyrophosphate synthetase 1 (PRPS1), mouse, endogenous (mouse (endogenous in NIH3T3 and C57BL/6 tissue)); assay: condition: only in P2/AP2 KO cells (without PRPS2 and PRPSAP2); SEC; native whole-cell lysate of NIH3T3 P2/AP2 KO cells on Superose 6 Increase 3.2/300; fractions immunoblotted
[9] = target: PRPS-associated protein 1 (PRPSAP1), mouse, endogenous (mouse (endogenous in NIH3T3 and C57BL/6 tissue)) (UniProt Q9D0M1); assay: SEC; native whole-cell lysate of NIH3T3 P2/AP2 KO cells on Superose 6 Increase 3.2/300; fractions immunoblotted
[10] = target: T4, phosphoribosyl pyrophosphate synthetase 1 (PRPS1), human, endogenous (human (endogenous in HEK293T)) (UniProt P60891); assay: SEC; native lysate of HEK293T cells fractionated by SEC; fractions immunoblotted (Supplementary Fig.5f)
T4 sequence: T1 sequence

[11] = target: T2, phosphoribosyl pyrophosphate synthetase 1 (PRPS1), mouse, endogenous (mouse (endogenous in NIH3T3 and C57BL/6 tissue)); assay: SEC; native lysate of NIH3T3 P2/AP1/AP2 KO cells re-expressing exogenous PRPS2 (Supplementary Fig.6h); fractions immunoblotted
[12] = target: PRPSAP1-ALFA, short isoform of AP1 (exogenous) (UniProt Q14558); assay: SEC; native lysate of NIH3T3 PRPS1-only (P2/AP1/AP2 KO) cells overexpressing AP1 (Supplementary Fig.7a); fractions immunoblotted
[13] = target: T3, phosphoribosyl pyrophosphate synthetase 2 (PRPS2), mouse, endogenous (mouse (endogenous in NIH3T3 and C57BL/6 tissue)); assay: SEC; native whole-cell lysates of NIH3T3 AP1/AP2 KO cells stably expressing one exogenous AP1 or AP2 isoform or AP1/AP2 chimera, on Superose 6 Increase 3.2/300; fractions immunoblotted

B1: phosphoribosyl pyrophosphate synthetase 2 (PRPS2), mouse, endogenous (enzyme, UniProt Q9CS42 1-318, looked up)
chain: T3 sequence
notes: PRPS2, mouse, endogenous protein of NIH3T3 cells and mouse tissue; also called P2; source: endogenous, NIH3T3 (parental and CRISPR knockout clones), native lysate; endogenous, C57BL/6 mouse kidney, native lysate
binding [1]: binds | binding [2]: binds | binding [3]: binds | binding [4]: binds

B2: PRPS-associated protein 2 (PRPSAP2), mouse, endogenous (protein, UniProt Q8R574 1-369)
chain: MFCVAPPELETKMNITKGGLVLFSANSNSSCMELSKKIAERLGVEMGKVQVYQEPNRETRVQIQESVRGKDVFIIQTISKDVNTTIMELLIMVYACKTSCAKSIIGVIPYFPYSKQCKMRKRGSIVSKLLASMMCKAGLTHLITMDLHQKEIQGFFNIPVDNLRASPFLLQYIQEEIPDYRNAVIVAKSPASAKRAQSFAERLRLGIAVIHGEAQDAESDLVDGRHSPPMVRSVAAIHPSLEIPMLIPKEKPPITVVGDVGGRIAIIVDDIIDDVDSFLAAAETLKERGAYKIFVMATHGLLSSDAPRLIEESAIDEVVVTNTIPHEIQKLQCPKIKTVDISMILSEAIRRIHNGESMSYLFRNIGLDD
binding [1]: binds | binding [2]: binds | binding [5]: binds | binding [4]: binds

B3: PRPS-associated protein 1 (PRPSAP1), mouse, endogenous (protein, UniProt Q9D0M1 1-356)
chain: MNAARTGYRVFSANSTAACTELAKRITERLGAELGKSVVYQETNGETRVEIKESVRGQDIFIIQTIPRDVNTAVMELLIMAYALKTACARNIIGVIPYFPYSKQSKMRKRGSIVCKLLASMLAKAGLTHIITMDLHQKEIQGFFSFPVDNLRASPFLLQYIQEEIPNYRNAVIVAKSPDAAKRAQSYAERLRLGLAVIHGEAQCTELDMDDGRHSPPMVKNATVHPGLELPLMMAKEKPPITVVGDVGGRIAIIVDDIIDDVESFVAAAEILKERGAYKIYVMATHGILSAEAPRLIEESPIDEVVVTNTVPHELQKLQCPKIKTVDISLILSEAIRRIHNGESMAYLFRNITVDD
binding [6]: binds weakly | binding [7]: binds | binding [8]: no binding | binding [9]: binds

B4: phosphoribosyl pyrophosphate synthetase 2 (PRPS2), human, endogenous (enzyme, UniProt P11908 1-318)
chain: T3 sequence with T160A, R163K, S263N, S285T
binding [10]: binds

B5: exogenous PRPS2 re-expressed in P2/AP1/AP2 KO cells (enzyme, UniProt Q9CS42 1-318)
chain: T3 sequence
binding [11]: binds

B6: PRPSAP1-ALFA, short isoform of AP1 (exogenous) (protein, UniProt Q14558 1-356)
chain: B3 chain with P301S, I302V, L315V
binding [12]: binds | binding [13]: binds
